Source: the supplement of paper PMC4604168 (melanoma cell lines)
Some of the results follow. Repeats are few or missing, and single values can be far off.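 Cells were imaged in 1,536-well plates, and nuclei stained with an antibody against cleaved PARP were counted against all DNA-stained nuclei to give the apoptosis fraction. Screening doses were chosen to leave most cells alive, and resting and induced cleaved-PARP levels differ strongly between cell lines.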

Key:
Test in all cases: cleaved PARP positive nuclei fraction relative to DMSO control; melanoma cells; higher = more apoptosis
Settings in all cases: library dose: low library concentration; 72 h
MZ2-MEL = tested on: MZ2-MEL
MeWo = tested on: MeWo
RPMI7951 = tested on: RPMI7951
RVH-421 = tested on: RVH-421
SkMel28 = tested on: SkMel28
SkMel30 = tested on: SkMel30
UACC62 = tested on: UACC62
WM115 = tested on: WM115
WM1716 = tested on: WM1716
WM1745 = tested on: WM1745
WM3526 = tested on: WM3526
WM3619 = tested on: WM3619
WM451Lu = tested on: WM451Lu
SkMel5 = tested on: SkMel5
UACC257 = tested on: UACC257

Compound	cleaved PARP positive nuclei fraction (MZ2-MEL)	cleaved PARP positive nuclei fraction (MeWo)	cleaved PARP positive nuclei fraction (RPMI7951)	cleaved PARP positive nuclei fraction (RVH-421)	cleaved PARP positive nuclei fraction (SkMel28)	cleaved PARP positive nuclei fraction (SkMel30)	cleaved PARP positive nuclei fraction (UACC62)	cleaved PARP positive nuclei fraction (WM115)	cleaved PARP positive nuclei fraction (WM1716)	cleaved PARP positive nuclei fraction (WM1745)	cleaved PARP positive nuclei fraction (WM3526)	cleaved PARP positive nuclei fraction (WM3619)	cleaved PARP positive nuclei fraction (WM451Lu)	cleaved PARP positive nuclei fraction (SkMel5)	cleaved PARP positive nuclei fraction (UACC257)
Cn1cnc2c(F)c(Nc3ccc(Br)cc3Cl)c(C(=O)NOCCO)cc21 [selumetinib] + C[C@]12O[C@H](C[C@]1(O)CO)n1c3ccccc3c3c4c(c5c6ccccc6n2c5c31)CNC4=O [Lestaurtinib] (first compound 0.015 µM, partner dose 0.004 µM)	422%	72.7%	99.6%	302%	132%	189%	202%	120%	28.2%	227%	57.9%	132%	88.9%	–	–
CC[C@]1(O)C[C@H]2CN(CCc3c([nH]c4ccccc34)[C@@](C(=O)OC)(c3cc4c(cc3OC)N(C=O)[C@H]3[C@@](O)(C(=O)OC)[C@H](OC(C)=O)[C@]5(CC)C=CCN6CC[C@]43[C@@H]65)C2)C1 [vincristine] + C[C@]12O[C@H](C[C@]1(O)CO)n1c3ccccc3c3c4c(c5c6ccccc6n2c5c31)CNC4=O [Lestaurtinib] (first compound 0.0001 µM, partner dose 0.004 µM)	138%	253%	186%	160%	114%	136%	246%	760%	101%	106%	99.6%	204%	116%	–	–
C[C@]12O[C@H](C[C@]1(O)CO)n1c3ccccc3c3c4c(c5c6ccccc6n2c5c31)CNC4=O [Lestaurtinib] + CN1CCN(c2ccc3nc(-c4c(N)c5c(F)cccc5[nH]c4=O)[nH]c3c2)CC1 [Dovitinib] (first compound 0.004 µM, partner dose 0.1 µM)	73.8%	266%	79.8%	219%	76.7%	32.7%	165%	222%	387%	108%	115%	1040%	54.1%	–	–
C[C@]12O[C@H](C[C@]1(O)CO)n1c3ccccc3c3c4c(c5c6ccccc6n2c5c31)CNC4=O [Lestaurtinib] + Nc1cccc2c1CN(C1CCC(=O)NC1=O)C2=O [lenalidomide] (first compound 0.004 µM, partner dose 1 µM)	95%	63.4%	107%	96.6%	61.1%	111%	35.6%	103%	34.5%	90.6%	88.1%	88.5%	43.6%	–	–
O=C(O)c1ccc2c(c1)nc(Nc1cccc(Cl)c1)c1ccncc12 + C/C(O)=C(\C#N)C(=O)Nc1cc(Br)ccc1Br [LFM-A13] (first compound 0.4 µM, partner dose 2 µM)	–	87.1%	176%	39.5%	167%	44.8%	119%	80.8%	95.7%	100%	136%	95%	195%	41.5%	314%
C[C@]12O[C@H](C[C@]1(O)CO)n1c3ccccc3c3c4c(c5c6ccccc6n2c5c31)CNC4=O [Lestaurtinib] + CC(=O)O[C@@]12CO[C@@H]1C[C@H](O)[C@@]1(C)C(=O)[C@H](O)C3=C(C)[C@@H](OC(=O)[C@H](O)[C@@H](NC(=O)OC(C)(C)C)c4ccccc4)C[C@@](O)([C@@H](OC(=O)c4ccccc4)[C@H]21)C3(C)C [Docetaxel] (first compound 0.004 µM, partner dose 0.0001 µM)	102%	402%	78.5%	235%	180%	378%	648%	151%	497%	141%	148%	130%	85%	–	–
Cn1cc(C2=C(c3cn(C4CCN(Cc5ccccn5)CC4)c4ccccc34)C(=O)NC2=O)c2ccccc21 [Enzastaurin] + CO[C@H]1C[C@@H]2CC[C@@H](C)[C@@](O)(O2)C(=O)C(=O)N2CCCC[C@H]2C(=O)O[C@H]([C@H](C)C[C@@H]2CC[C@@H](OCCO)[C@H](OC)C2)CC(=O)[C@H](C)/C=C(\C)[C@@H](O)[C@@H](OC)C(=O)[C@H](C)C[C@H](C)/C=C/C=C/C=C/1C [everolimus] (first compound 0.8 µM, partner dose 0.02 µM)	78.2%	53%	111%	129%	44%	40.7%	85.1%	90.4%	73.3%	105%	60.9%	119%	78.5%	–	–
NC(=O)c1ccc(N(C(N)=O)c2c(F)cccc2F)nc1-c1ccc(F)cc1F + C[C@]12O[C@H](C[C@]1(O)CO)n1c3ccccc3c3c4c(c5c6ccccc6n2c5c31)CNC4=O [Lestaurtinib] (first compound 0.4 µM, partner dose 0.004 µM)	31.9%	97.1%	98.3%	63.1%	67.5%	91.1%	253%	148%	20.9%	93.5%	415%	104%	93.4%	–	–
CCCCCCCCCCCCCCCCCCOP(=O)([O-])OC1CC[N+](C)(C)CC1 [Perifosine] + C[C@]12O[C@H](C[C@]1(O)CO)n1c3ccccc3c3c4c(c5c6ccccc6n2c5c31)CNC4=O [Lestaurtinib] (first compound 0.4 µM, partner dose 0.004 µM)	202%	113%	90.2%	95.2%	119%	16.3%	110%	99.3%	74.9%	102%	98%	95.2%	15.9%	–	–
N#CC[C@H](C1CCCC1)n1cc(-c2ncnc3[nH]ccc23)cn1 [ruxolitinib] + C[C@]12O[C@H](C[C@]1(O)CO)n1c3ccccc3c3c4c(c5c6ccccc6n2c5c31)CNC4=O [Lestaurtinib] (first compound 1 µM, partner dose 0.004 µM)	205%	179%	40.9%	97.3%	90.7%	45.9%	28.7%	85.7%	34.1%	202%	99.4%	96.1%	57.8%	–	–
C[C@]12O[C@H](C[C@]1(O)CO)n1c3ccccc3c3c4c(c5c6ccccc6n2c5c31)CNC4=O [Lestaurtinib] + COc1ccc(Cl)c(Nc2nc3ccccc3nc2NS(=O)(=O)c2cccc(NC(=O)C(C)(C)N)c2)c1 [XL147] (first compound 0.004 µM, partner dose 0.8 µM)	45.9%	110%	84.9%	114%	203%	24%	75.4%	147%	67.5%	92.7%	62.8%	120%	56.4%	–	–
O=C(CCCCCCC(=O)Nc1ccccc1)NO [vorinostat] + O=C(Oc1ccc([N+](=O)[O-])cc1)N1CCC(C(O)(c2ccc3c(c2)OCO3)c2ccc3c(c2)OCO3)CC1 [JZL184] (first compound 0.08 µM, partner dose 1 µM)	–	222%	39.7%	15%	161%	41.2%	515%	150%	91%	103%	83.8%	77.3%	257%	33.5%	176%
C[C@]12O[C@H](C[C@]1(O)CO)n1c3ccccc3c3c4c(c5c6ccccc6n2c5c31)CNC4=O [Lestaurtinib] + CO[C@H]1C[C@@H]2CC[C@@H](C)[C@@](O)(O2)C(=O)C(=O)N2CCCC[C@H]2C(=O)O[C@H]([C@H](C)C[C@@H]2CC[C@@H](OCCO)[C@H](OC)C2)CC(=O)[C@H](C)/C=C(\C)[C@@H](O)[C@@H](OC)C(=O)[C@H](C)C[C@H](C)/C=C/C=C/C=C/1C [everolimus] (first compound 0.004 µM, partner dose 0.02 µM)	95.5%	124%	86.5%	44.5%	161%	75.7%	91.5%	117%	55.1%	104%	237%	97.4%	97.2%	–	–
C[C@]12O[C@H](C[C@]1(O)CO)n1c3ccccc3c3c4c(c5c6ccccc6n2c5c31)CNC4=O [Lestaurtinib] + COCC[n+]1c2c(n(Cc3cnccn3)c1C)C(=O)c1ccccc1C2=O [YM155] (first compound 0.004 µM, partner dose 0.0004 µM)	120%	31.8%	30.8%	47.8%	93.3%	13.5%	30%	126%	50.6%	19%	20.9%	87.6%	56%	–	–
Cc1cc(Nc2cc(N3CCN(C)CC3)nc(Sc3ccc(NC(=O)C4CC4)cc3)n2)n[nH]1 [Tozasertib] + C[C@]12O[C@H](C[C@]1(O)CO)n1c3ccccc3c3c4c(c5c6ccccc6n2c5c31)CNC4=O [Lestaurtinib] (first compound 0.006 µM, partner dose 0.004 µM)	141%	145%	71.6%	183%	98.7%	144%	118%	130%	101%	110%	55.3%	70%	112%	–	–
C[C@]12O[C@H](C[C@]1(O)CO)n1c3ccccc3c3c4c(c5c6ccccc6n2c5c31)CNC4=O [Lestaurtinib] + Nc1ncn([C@H]2C[C@H](O)[C@@H](CO)O2)c(=O)n1 [decitabine] (first compound 0.004 µM, partner dose 0.1 µM)	143%	90.2%	57%	53.7%	158%	94.8%	313%	115%	75%	109%	198%	106%	127%	–	–
C[C@]12O[C@H](C[C@]1(O)CO)n1c3ccccc3c3c4c(c5c6ccccc6n2c5c31)CNC4=O [Lestaurtinib] + CCCS(=O)(=O)Nc1ccc(F)c(C(=O)c2c[nH]c3ncc(Cl)cc23)c1F [PLX4720] (first compound 0.004 µM, partner dose 0.08 µM)	92.4%	50.4%	88%	219%	40.2%	144%	45.2%	186%	38.4%	98.8%	103%	78.9%	87.4%	–	–
C[C@]12O[C@H](C[C@]1(O)CO)n1c3ccccc3c3c4c(c5c6ccccc6n2c5c31)CNC4=O [Lestaurtinib] + O=C(O)c1ccc2c(c1)nc(Nc1cccc(Cl)c1)c1ccncc12 [CX4945] (first compound 0.004 µM, partner dose 0.4 µM)	114%	65.7%	48.9%	73.3%	161%	116%	115%	206%	266%	100%	99.2%	91.7%	49.5%	–	–
C[As](C)SC[C@H](NC(=O)CC[C@H](N)C(=O)O)C(=O)NCC(=O)O [Darinaparsin] + C/C(O)=C(\C#N)C(=O)Nc1cc(Br)ccc1Br [LFM-A13] (first compound 0.4 µM, partner dose 2 µM)	–	119%	85.1%	19.7%	163%	37.6%	91.3%	96.9%	93.5%	99.4%	71.9%	71.8%	145%	80.8%	115%

Some of the entries above in a different format:

| Compound | cleaved PARP positive nuclei fraction (MZ2-MEL) | cleaved PARP positive nuclei fraction (MeWo) | cleaved PARP positive nuclei fraction (RPMI7951) | cleaved PARP positive nuclei fraction (RVH-421) | cleaved PARP positive nuclei fraction (SkMel28) | cleaved PARP positive nuclei fraction (SkMel30) | cleaved PARP positive nuclei fraction (UACC62) | cleaved PARP positive nuclei fraction (WM115) | cleaved PARP positive nuclei fraction (WM1716) | cleaved PARP positive nuclei fraction (WM1745) | cleaved PARP positive nuclei fraction (WM3526) | cleaved PARP positive nuclei fraction (WM3619) | cleaved PARP positive nuclei fraction (WM451Lu) | cleaved PARP positive nuclei fraction (SkMel5) | cleaved PARP positive nuclei fraction (UACC257) |
| --- | --- | --- | --- | --- | --- | --- | --- | --- | --- | --- | --- | --- | --- | --- | --- |
| Cc1cc(Nc2cc(N3CCN(C)CC3)nc(Sc3ccc(NC(=O)C4CC4)cc3)n2)n[nH]1 [Tozasertib] + C[C@]12O[C@H](C[C@]1(O)CO)n1c3ccccc3c3c4c(c5c6ccccc6n2c5c31)CNC4=O [Lestaurtinib] (first compound 0.006 µM, partner dose 0.004 µM) | 141% | 145% | 71.6% | 183% | 98.7% | 144% | 118% | 130% | 101% | 110% | 55.3% | 70% | 112% | – | – |
| C[C@]12O[C@H](C[C@]1(O)CO)n1c3ccccc3c3c4c(c5c6ccccc6n2c5c31)CNC4=O [Lestaurtinib] + CCCS(=O)(=O)Nc1ccc(F)c(C(=O)c2c[nH]c3ncc(Cl)cc23)c1F [PLX4720] (first compound 0.004 µM, partner dose 0.08 µM) | 92.4% | 50.4% | 88% | 219% | 40.2% | 144% | 45.2% | 186% | 38.4% | 98.8% | 103% | 78.9% | 87.4% | – | – |
